Measured values as given in paper PMC11092817.
These are yes or no findings as the source states them, for the method shown. In cells and extracts the contact can be indirect. Some results given as binding are weak or reduced against the parent protein; the word gives no strength. For some of these results: Sequences can lack the tags named with a protein. One block for each substance: values may come before it.

Amino acid sequences for entries named in this document (tags omitted).
UniProt Q96E35: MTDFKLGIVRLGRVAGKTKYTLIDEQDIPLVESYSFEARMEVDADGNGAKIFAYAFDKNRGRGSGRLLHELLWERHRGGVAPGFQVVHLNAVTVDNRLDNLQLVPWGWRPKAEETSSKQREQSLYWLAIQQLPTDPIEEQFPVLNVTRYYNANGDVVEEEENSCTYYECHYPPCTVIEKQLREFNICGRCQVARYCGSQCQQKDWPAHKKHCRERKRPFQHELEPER
UniProt Q8N122: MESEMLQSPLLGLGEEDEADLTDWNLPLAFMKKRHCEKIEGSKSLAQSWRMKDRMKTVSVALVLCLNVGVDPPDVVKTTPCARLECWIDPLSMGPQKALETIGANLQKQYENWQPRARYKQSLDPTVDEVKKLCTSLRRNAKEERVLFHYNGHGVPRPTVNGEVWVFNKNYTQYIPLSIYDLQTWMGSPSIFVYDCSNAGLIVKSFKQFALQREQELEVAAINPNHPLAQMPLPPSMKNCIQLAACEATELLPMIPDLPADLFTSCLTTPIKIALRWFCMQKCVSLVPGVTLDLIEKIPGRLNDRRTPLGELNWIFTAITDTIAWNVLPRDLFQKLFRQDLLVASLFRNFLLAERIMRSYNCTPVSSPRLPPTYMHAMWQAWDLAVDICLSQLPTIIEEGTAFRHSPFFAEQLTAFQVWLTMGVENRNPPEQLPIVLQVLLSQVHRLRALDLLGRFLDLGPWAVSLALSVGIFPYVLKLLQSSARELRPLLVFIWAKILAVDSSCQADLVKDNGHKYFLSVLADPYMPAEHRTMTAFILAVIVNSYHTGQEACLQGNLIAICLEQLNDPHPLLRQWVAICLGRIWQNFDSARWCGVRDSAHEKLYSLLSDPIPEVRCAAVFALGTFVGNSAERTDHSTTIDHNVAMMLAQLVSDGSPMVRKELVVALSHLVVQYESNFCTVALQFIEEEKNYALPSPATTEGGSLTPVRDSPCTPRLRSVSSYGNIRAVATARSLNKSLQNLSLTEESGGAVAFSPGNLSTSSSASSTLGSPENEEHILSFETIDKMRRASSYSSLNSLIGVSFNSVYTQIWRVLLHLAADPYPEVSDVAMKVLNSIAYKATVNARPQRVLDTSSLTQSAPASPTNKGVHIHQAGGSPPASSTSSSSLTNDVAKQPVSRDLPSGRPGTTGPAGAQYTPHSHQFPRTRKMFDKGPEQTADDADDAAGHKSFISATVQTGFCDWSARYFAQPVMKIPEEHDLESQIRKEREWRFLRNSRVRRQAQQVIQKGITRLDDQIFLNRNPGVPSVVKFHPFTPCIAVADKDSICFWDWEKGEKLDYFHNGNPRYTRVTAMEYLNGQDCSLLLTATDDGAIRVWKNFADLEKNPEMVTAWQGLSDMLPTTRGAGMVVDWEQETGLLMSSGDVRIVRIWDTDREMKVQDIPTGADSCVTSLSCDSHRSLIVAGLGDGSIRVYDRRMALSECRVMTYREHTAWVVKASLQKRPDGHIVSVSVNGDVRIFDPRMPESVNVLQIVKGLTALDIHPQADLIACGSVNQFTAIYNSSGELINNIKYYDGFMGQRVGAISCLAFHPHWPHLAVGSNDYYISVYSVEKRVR

Experiments:
[1] = target: FLAG-tagged MKLN1 and ZMYND19, co-expressed (UniProt Q96E35); assay: co-IP; anti-FLAG immunoprecipitation from 293T transiently co-expressing FLAG-tagged ZMYND19 and MKLN1, Myc-tagged Raptor and HA-tagged Rheb or HA-tagged RagA and RagC (wildtype or point mutants) (Fig. 6e)
FLAG-tagged TMEM192 = target: T1, FLAG-tagged TMEM192 (UniProt Q8IY95); assay: co-IP; anti-FLAG M2 antibody on protein A/G magnetic beads; lysates of HEK-293T transiently transfected for 24 hours with one FLAG-tagged bait and Raptor-MYC (Fig. 6a)
T1 sequence: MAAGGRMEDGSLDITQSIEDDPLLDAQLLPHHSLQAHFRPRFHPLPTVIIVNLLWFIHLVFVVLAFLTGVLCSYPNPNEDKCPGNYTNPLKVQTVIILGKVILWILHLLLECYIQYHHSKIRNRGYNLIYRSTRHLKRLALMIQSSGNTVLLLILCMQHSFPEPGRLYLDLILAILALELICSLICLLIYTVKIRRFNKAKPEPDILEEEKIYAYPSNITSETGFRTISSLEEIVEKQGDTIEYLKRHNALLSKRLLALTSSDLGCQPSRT

FLAG-tagged ZMYND19 = FLAG-tagged ZMYND19 (UniProt Q96E35); assay: as above
[2] = target: V5-tagged full length ZMYND19 (UniProt Q96E35); assay: co-IP; anti-V5-tag magnetic beads, 3 h at 4°C, on lysates (IP lysis buffer) of YCCEL1 stably expressing V5-tagged cDNAs; immunoblot of 5% input vs immunoprecipitate

binding [1]: no binding
Substance: HA-tagged Rheb (from UniProt Q15382 1-184)

binding (FLAG-tagged TMEM192): no binding
binding (FLAG-tagged ZMYND19): binds
Substance: Myc-tagged Raptor (from UniProt Q8N122 1-1335)

binding [2]: binds
Substance: Raptor (from UniProt Q8N122 1-1335)
